For 14 molecules, binding results are on record in article PMC4682051.

Amino acid sequences for entries named in this document (tags omitted).
UniProt Q9Z1S5: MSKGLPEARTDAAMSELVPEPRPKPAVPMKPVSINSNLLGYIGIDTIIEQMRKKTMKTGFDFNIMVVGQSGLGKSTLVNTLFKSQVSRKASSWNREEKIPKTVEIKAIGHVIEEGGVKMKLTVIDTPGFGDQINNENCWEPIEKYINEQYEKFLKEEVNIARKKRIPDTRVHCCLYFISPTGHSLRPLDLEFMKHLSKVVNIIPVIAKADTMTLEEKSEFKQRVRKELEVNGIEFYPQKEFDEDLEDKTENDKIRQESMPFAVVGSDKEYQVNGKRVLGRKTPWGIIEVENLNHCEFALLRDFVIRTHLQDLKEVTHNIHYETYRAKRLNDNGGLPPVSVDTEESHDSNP
UniProt Q8R527: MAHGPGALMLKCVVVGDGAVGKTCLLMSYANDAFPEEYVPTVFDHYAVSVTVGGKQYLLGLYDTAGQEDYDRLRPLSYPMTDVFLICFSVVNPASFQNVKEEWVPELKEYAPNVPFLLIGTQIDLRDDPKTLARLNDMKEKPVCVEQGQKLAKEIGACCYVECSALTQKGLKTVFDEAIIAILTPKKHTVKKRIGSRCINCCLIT
UniProt Q62261: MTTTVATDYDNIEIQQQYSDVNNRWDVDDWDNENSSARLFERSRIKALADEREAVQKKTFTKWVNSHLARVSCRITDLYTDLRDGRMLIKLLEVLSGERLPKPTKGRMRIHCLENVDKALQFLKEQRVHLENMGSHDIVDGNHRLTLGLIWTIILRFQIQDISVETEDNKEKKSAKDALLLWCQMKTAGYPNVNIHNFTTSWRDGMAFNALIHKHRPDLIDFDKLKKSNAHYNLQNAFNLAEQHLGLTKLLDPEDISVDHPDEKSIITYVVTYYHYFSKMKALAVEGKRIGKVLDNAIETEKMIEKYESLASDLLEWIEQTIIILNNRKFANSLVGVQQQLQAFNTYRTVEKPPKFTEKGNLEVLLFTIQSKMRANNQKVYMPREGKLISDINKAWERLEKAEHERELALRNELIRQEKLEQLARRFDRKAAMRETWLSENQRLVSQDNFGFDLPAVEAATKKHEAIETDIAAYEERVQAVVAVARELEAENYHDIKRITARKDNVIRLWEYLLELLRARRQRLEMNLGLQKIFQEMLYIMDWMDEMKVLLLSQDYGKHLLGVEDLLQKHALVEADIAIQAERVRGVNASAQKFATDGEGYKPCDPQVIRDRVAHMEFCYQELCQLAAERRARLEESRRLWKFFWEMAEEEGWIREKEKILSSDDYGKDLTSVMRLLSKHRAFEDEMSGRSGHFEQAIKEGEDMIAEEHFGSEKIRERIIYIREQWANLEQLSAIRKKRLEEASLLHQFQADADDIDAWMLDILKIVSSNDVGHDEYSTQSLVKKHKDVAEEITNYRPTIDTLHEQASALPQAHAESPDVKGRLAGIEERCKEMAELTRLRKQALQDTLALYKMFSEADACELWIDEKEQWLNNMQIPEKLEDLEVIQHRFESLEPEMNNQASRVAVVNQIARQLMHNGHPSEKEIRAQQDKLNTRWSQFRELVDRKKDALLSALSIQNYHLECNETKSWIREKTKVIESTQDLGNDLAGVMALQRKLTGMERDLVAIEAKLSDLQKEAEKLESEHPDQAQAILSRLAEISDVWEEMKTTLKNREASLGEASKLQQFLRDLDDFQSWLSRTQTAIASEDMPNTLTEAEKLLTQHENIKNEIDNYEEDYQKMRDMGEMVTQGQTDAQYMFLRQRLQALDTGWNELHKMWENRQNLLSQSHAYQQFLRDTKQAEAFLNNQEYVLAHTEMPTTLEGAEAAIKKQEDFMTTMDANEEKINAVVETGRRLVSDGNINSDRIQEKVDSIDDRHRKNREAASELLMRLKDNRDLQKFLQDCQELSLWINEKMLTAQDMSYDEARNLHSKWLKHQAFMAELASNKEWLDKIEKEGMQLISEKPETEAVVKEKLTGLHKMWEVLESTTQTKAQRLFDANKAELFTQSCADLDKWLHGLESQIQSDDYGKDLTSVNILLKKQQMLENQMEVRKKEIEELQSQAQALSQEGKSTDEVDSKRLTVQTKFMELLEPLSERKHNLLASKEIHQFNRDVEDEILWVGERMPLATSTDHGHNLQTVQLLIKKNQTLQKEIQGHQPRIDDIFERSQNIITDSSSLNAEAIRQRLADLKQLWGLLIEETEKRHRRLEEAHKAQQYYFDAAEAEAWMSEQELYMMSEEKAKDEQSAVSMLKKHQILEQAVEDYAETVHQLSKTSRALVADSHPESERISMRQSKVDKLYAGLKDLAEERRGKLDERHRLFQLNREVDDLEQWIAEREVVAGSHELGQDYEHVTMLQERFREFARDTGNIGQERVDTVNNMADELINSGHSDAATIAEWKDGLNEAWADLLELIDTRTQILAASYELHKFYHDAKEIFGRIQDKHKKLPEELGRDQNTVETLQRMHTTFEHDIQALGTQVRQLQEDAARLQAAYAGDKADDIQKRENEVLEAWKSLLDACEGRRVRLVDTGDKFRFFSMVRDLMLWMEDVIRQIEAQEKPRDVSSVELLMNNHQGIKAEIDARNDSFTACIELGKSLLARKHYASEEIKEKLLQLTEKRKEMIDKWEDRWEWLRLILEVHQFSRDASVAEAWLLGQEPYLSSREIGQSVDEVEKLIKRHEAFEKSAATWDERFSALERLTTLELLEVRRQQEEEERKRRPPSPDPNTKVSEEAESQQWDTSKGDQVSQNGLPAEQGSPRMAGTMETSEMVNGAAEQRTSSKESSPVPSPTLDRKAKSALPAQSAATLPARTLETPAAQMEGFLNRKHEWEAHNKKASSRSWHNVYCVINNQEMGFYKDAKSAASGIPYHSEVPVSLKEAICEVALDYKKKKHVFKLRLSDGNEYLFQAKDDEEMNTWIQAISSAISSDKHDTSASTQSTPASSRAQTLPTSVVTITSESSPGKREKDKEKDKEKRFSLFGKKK
UniProt P60766: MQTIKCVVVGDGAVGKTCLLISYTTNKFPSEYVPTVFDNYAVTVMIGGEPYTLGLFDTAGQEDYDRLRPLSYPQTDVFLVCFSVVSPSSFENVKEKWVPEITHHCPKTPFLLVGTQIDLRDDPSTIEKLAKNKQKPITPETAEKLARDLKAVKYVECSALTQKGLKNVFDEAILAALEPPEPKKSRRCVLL
UniProt Q61879: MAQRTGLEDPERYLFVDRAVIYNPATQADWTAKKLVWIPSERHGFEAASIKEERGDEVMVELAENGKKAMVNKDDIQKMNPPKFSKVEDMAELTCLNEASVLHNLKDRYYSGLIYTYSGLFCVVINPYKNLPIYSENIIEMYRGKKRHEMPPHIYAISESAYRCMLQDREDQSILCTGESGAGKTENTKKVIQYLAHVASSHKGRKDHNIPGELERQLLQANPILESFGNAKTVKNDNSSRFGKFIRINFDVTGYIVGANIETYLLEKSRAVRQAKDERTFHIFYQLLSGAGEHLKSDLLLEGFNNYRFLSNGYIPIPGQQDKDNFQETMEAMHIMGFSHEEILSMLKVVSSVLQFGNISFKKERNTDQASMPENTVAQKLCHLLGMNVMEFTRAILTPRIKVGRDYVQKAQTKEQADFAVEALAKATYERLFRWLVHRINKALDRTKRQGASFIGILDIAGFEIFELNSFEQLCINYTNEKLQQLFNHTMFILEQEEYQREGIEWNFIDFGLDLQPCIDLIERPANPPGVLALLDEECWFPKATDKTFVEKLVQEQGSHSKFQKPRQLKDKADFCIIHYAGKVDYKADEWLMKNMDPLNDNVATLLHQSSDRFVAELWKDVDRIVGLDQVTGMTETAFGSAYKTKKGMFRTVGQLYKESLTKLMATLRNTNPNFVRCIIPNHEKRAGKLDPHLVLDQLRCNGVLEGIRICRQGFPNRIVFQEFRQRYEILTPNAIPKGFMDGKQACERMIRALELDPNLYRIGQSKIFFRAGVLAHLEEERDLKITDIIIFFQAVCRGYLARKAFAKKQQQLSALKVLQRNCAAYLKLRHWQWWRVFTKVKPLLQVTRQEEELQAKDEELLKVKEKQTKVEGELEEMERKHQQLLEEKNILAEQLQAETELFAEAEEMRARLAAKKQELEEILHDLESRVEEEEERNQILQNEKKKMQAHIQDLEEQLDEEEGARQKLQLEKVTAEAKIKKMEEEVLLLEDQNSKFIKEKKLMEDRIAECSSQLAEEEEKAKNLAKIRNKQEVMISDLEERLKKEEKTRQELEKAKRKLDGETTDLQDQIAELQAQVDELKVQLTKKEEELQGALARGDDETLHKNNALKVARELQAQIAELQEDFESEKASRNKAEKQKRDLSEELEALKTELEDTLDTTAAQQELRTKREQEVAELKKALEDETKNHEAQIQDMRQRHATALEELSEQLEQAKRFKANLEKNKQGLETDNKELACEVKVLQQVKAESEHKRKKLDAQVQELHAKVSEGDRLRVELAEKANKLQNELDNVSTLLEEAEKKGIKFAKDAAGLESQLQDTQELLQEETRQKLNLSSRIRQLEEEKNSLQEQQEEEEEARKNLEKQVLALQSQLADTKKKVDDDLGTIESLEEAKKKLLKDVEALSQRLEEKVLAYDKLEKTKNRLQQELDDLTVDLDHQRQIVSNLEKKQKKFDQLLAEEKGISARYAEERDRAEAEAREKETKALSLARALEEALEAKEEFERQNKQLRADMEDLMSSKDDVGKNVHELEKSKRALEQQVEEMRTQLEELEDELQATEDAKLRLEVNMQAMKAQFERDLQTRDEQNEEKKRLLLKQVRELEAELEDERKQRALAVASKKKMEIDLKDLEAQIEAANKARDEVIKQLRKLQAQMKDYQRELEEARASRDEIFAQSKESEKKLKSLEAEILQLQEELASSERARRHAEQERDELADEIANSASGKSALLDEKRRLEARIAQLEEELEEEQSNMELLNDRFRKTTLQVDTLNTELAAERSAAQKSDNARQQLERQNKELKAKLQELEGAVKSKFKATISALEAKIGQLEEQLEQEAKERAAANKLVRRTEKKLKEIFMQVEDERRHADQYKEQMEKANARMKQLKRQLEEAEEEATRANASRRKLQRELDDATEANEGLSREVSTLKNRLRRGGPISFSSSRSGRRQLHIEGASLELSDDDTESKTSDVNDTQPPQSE

Sequences and labels used below:
T1: CDC42EP4 (mouse (endogenous in cerebellum)) (UniProt Q9JM96)
T1 sequence: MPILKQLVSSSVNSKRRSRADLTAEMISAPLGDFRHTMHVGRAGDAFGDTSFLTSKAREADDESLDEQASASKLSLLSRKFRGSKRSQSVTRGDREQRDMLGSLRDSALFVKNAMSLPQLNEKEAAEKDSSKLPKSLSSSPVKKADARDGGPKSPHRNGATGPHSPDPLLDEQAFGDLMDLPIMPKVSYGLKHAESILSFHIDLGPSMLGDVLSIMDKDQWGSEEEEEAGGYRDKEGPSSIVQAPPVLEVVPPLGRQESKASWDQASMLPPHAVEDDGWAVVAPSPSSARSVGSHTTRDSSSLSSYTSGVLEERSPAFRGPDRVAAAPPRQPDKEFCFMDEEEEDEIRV

B1: SEPT2 (protein, UniProt P42208 1-361)
chain: MSKQQPTQFINPETPGYVGFANLPNQVHRKSVKKGFEFTLMVVGESGLGKSTLINSLFLTDLYPERIIPGAAEKIERTVQIEASTVEIEERGVKLRLTVVDTPGYGDAINCRDCFKTIISYIDEQFERYLHDESGLNRRHIIDNRVHCCFYFISPFGHGLKPLDVAFMKAIHNKVNIVPVIAKADTLTLKERERLKKRILDEIEEHSIKIYHLPDAESDEDEDFKEQTRLLKASIPFSVVGSNQLIEAKGKKVRGRLYPWGVVEVENPEHNDFLKLRTMLITHMQDLQEVTQDLHYENFRSERLKRGGRKVENEDMNKDQILLEKEAELRRMQEMIARMQAQMQMQMQGGDSDSGALGQHV
B2: SEPT7 (protein, UniProt O55131 1-436)
chain: MSVSARSAAAEERSVNCGTMAQPKNLEGYVGFANLPNQVYRKSVKRGFEFTLMVVGESGLGKSTLINSLFLTDLYSPEYPGPSHRIKKTVQVEQSKVLIKEGGVQLLLTIVDTPGFGDAVDNSNCWQPVIDYIDSKFEDYLNAESRVNRRQMPDNRVQCCLYFIAPSGHGLKPLDIEFMKRLHEKVNIIPLIAKADTLTPEECQQFKKQIMKEIQEHKIKIYEFPETDDEEENKLVKKIKDRLPLAVVGSNTIIEVNGKRVRGRQYPWGVAEVENGEHCDFTILRNMLIRTHMQDLKDVTNNVHYENYRSRKLAAVTYNGVDNNKNKGQLTKSPLAQMEEERREHVAKMKKMEMEMEQVFEMKVKEKVQKLKDSEAELQRRHEQMKKNLEAQHKELEEKRRQFEEEKANWEAQQRILEQQNSSRTLEKNKKKGKIF
B3: SEPT6 (protein, UniProt Q9R1T4 1-434)
chain: MAAADIARQVGEDCRTVPLAGHVGFDSLPDQLVNKSVSQGFCFNILCVGETGLGKSTLMDTLFNTKFEGEPATHTQPGVQLQSNTYDLQESNVGLKLTIVSTVGFGDQINKEDSYKPIVEFIDAQFEAYLQEELKIRRVLHSYHDSRIHVCLYFIAPTGHSLKSLDLVTMKKLDSKVNIIPVIAKSDAISKSELAKFKIKITSELVSNGVQIYQFPTDDESVSEINGTMNAHLPFAVVGSTEEVKIGNKMMRARQYPWGTVQVENEAHCDFVKLREMLIRVNMEDLREQTHARHYELYRRCKLEEMGFKDTDPDSKPFSLQETYEAKRNEFLGELQKKEEEMRQMFVQRVKEKEAELKEAEKELHEKFDRLKKLHQEEKKKLEDKKKCLDEEMNAFKQRKAAAELLQSQGSQAGGSQTLKRDKEKKNNPWLCIE
B4: SEPT5 (protein, UniProt Q9Z2Q6 1-369)
chain: MSTGLRYKSKLATPEDKQDIDKQYVGFATLPNQVHRKSVKKGFDFTLMVAGESGLGKSTLVHSLFLTDLYKDRKLLSAEERINQTVEILKHTVDIEEKGVKLKLTIVDTPGFGDAVNNSECWKPITDYVDQQFEQYFRDESGLNRKNIQDNRVHCCLYFISPFGHGLRPVDVGFMKALHEKVNIVPLIAKADCLVPSEIRKLKDRIREEIDKFGIHVYQFPECDSDEDEDFKQQDRELKESAPFAVIGSNTVVEAKGQRVRGRLYPWGIVEVENQAHCDFVKLRNMLIRTHMHDLKDVTCDVHYENYRAHCIQQMTSKLTQDSRMESPIPILPLPTPDAETEKLIRMKDEELRRMQEMLQKMKQQMQDQ
B5: SEPT11 (protein, UniProt Q8C1B7 1-431)
chain: MAVAVGRPSNEELRNLSLSGHVGFDSLPDQLVNKSTSQGFCFNILCVGETGIGKSTLMDTLFNTKFESDPATHNEPGVRLKARSYELQESNVRLKLTIVDTVGFGDQINKDDSYKPIVEYIDAQFEAYLQEELKIKRSLFNYHDTRIHACLYFIAPTGHSLKSLDLVTMKKLDSKVNIIPIIAKADTIAKNELHKFKSKIMSELVSNGVQIYQFPTDEETVAEINATMSVHLPFAVVGSTEEVKIGNKMAKARQYPWGVVQVENENHCDFVKLREMLIRVNMEDLREQTHTRHYELYRRCKLEEMGFKDTDPDSKPFSLQETYEAKRNEFLGELQKKEEEMRQMFVMRVKEKEAELKEAEKELHEKFDLLKRTHQEEKKKVEDKKKELEEEVSNFQKKKAAAQLLQSQAQQSGAQQTKKDKDKKNPWLCTE
B6: SEPT4 (protein, UniProt P28661 1-478)
chain: MDHSLGWQGNSVPEDGTEAGIKHFLEDSSDDAELSKFVKDFPGSEPYHSAESKTRVARPQILEPRPQSPDLCDDDVEFRGSLWPQPSDSQQYFSAPAPLSPSSRPRSPWGKLDPYDSSEDDKEYVGFATLPNQVHRKSVKKGFDFTLMVAGESGLGKSTLVNSLFLTDLYRDRKLLGAEERIMQTVEITKHAVDIEEKGVRLRLTIVDTPGFGDAVNNTECWKPVAEYIDQQFEQYFRDESGLNRKNIQDNRVHCCLYFISPFGHGLRPLDVEFMKALHQRVNIVPILAKADTLTPPEVDRKKCKIREEIEHFGIKIYQFPDCDSDEDEDFKLQDQALKESIPFAVIGSNTVVEARGRRVRGRLYPWGIVEVENPGHCDFVKLRTMLVRTHMQDLKDVTRETHYENYRAQCIQSMTRLVVKERNRNKLTRESGTDFPIPAVPPGTDPETEKLIREKDEELRRMQEMLHKIQRQMKETH
B7: SEPT8 (protein, UniProt Q8CHH9 1-429)
chain: MAATDLERVSNAEPEPRSLSLGGHVGFDSLPDQLVSKSVTQGFSFNILCVGETGIGKSTLMNTLFNTTFETEEASHHEECVRLRPQTYDLQESNVHLKLTIVDAVGFGDQINKDDSYRPIVDYIDAQFENYLQEELKIRRSLFDYHDTRIHVCLYFITPTGHSLKSLDLVTMKKLDSKVNIIPIIAKADTISKSELHKFKIKIMGELVSNGVQIYQFPTDDEAVAEINAVMNAHLPFAVVGSTEEVKVGNKLVRARQYPWGVVQVENENHCDFVKLREMLIRVNMEDLREQTHSRHYELYRRCKLEEMGFQDSDGDSQPFSLQETYEAKRKEFLSELQRKEEEMRQMFVNKVKETELELKEKERELHEKFEHLKRIHQEEKRKVEEKRRELEEETNAFNCRKAAMEALQSQALHATSQQPLRKDKDKKN
B8: SEPT10 (protein, UniProt Q8C650 1-452)
chain: MASCDEIKEHPRSLSMCGHVGFESLPDQLVDRSIEQGFCFNILCVGETGIGKSTLINTLFNTNFEELESSHFCPCVRLRAQTYELQESNVRLKLTIVNTVGFGDQINKEDSYQPIVDYIDDQFEAYLQEEVKIKRALFNYHDSRIHVCLYFIAPTGHSLRTLDLLTMKSLDNKVNIIPLIAKADTISKSELQKFKMKLMNELVINGVQIYQFPTDDDTTSKINGAMNGHLPFAVVGSMDEIKVGNKMVKGRQYPWGIVQVENENHCDFVKLREMLICTNMEDLREQTHMRHYELYRRCKLQEMGFVDMGPENKPLSLQETYEAKRHEFYGERQRKEEQMKQMFVQRVKEKEAILKEAERELQAKFEHLKRIHQEERMKLEEKRRMLEEESVAFAKKKATCELFPNQSFLASGSSIRKDKDRKKADGASAFCDCLTAQESVRLCISSPRKDMD

No constants are given. Whether binding was seen depends on the method and setting. Binding seen in cells or lysates may run through a third protein. Here binding means that the protein was enriched with, or labelled near, the bait; the list need not be complete. A no says only that the protein was not detected with the bait.

For this assay, the target named is T1, CDC42EP4 (mouse (endogenous in cerebellum)). Nature of the assay: affinity purification with mass spectrometry; immunoaffinity for CDC42EP4 (anti-CDC42EP4 on protein A beads) from WT mouse cerebellar lysate; buffer C (20 mM Tris-HCl pH 8.0, 0.15 M NaCl, 1 mM EDTA, 1% NP-40), more stringent wash; LC-MS/MS; controls: KO lysate and nonimmune IgG.
As to SEPT3 (from UniProt Q9Z1S5 1-350), the binding result is reported as “binds”.
For Tc10/RhoQ (from UniProt Q8R527 1-205), the binding result was “no binding”.
For the molecule “α-II spectrin (from UniProt P16546 1-2472)”, the binding result was “binds”.
Regarding “β-II spectrin (from UniProt Q62261 1-2363)”, the binding entry is given as “binds”.
For CDC42 (from UniProt P60766 1-191), the binding entry is listed as “no binding”.
For “Myosin-10 (nonmuscle myosin heavy chain IIB) (from UniProt Q61879 1-1976)”, the binding entry is on record as “binds”.
In the case of B1 it was “binds”; in that of B2, “binds”; in that of B3, “binds”.
As to B4, the binding result is reported as “binds”.
Regarding B5, the binding result is reported as “binds”.
Consider B6, for which the binding result is on record as “binds”.
Regarding B7, the binding entry is “binds”.
As for B8, the binding result was “binds”.
